Reference: article doi:10.64898/2025.12.08.692925

Target: T1, Tim23 fused to TurboID-V5 (S. cerevisiae) (UniProt P32897)
T1 sequence: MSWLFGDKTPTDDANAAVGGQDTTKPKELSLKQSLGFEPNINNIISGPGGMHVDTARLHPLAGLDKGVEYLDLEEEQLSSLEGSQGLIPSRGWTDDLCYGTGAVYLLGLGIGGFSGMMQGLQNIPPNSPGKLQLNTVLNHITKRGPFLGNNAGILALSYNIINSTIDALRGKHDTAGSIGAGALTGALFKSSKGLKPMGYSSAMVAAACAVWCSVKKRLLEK
Assay: proximity labelling

binding: binds
B1: Sfc1, endogenous (protein, UniProt P33303 1-322)
chain: MSQKKKASHPAINLMAGGTAGLFEALCCHPLDTIKVRMQIYRRVAGIEHVKPPGFIKTGRTIYQKEGFLALYKGLGAVVIGIIPKMAIRFSSYEFYRTLLVNKESGIVSTGNTFVAGVGAGITEAVLVVNPMEVVKIRLQAQHLTPSEPNAGPKYNNAIHAAYTIVKEEGVSALYRGVSLTAARQATNQGANFTVYSKLKEFLQNYHQMDVLPSWETSCIGLISGAIGPFSNAPLDTIKTRLQKDKSISLEKQSGMKKIITIGAQLLKEEGFRALYKGITPRVMRVAPGQAVTFTVYEYVREHLENLGIFKKNDTPKPKPLK

No constants are given. Whether binding was seen depends on the method and setting. Binding seen in cells or lysates may run through a third protein. A yes stands for co-enrichment or nearness to the bait. Other partners may have been found. Tags and fused reporters may be left off the sequences shown.
